Reference: publication PMC7503102
These are yes or no findings as the source states them, for the method shown. Binding seen in cells or lysates may run through a third protein. Some binding calls cover weakened binding; strength is not graded here. Values belong to the substance of their own block, whether it stands above or below them.

The chains behind the UniProt entries cited, without tags or fusion partners. Where a name states a change or a piece, a line headed by the entry shows the natural chain unless it says otherwise. A line that says so, or that is headed by a name, gives the form on record, which may keep a tag or linker.
UniProt Q68DV7: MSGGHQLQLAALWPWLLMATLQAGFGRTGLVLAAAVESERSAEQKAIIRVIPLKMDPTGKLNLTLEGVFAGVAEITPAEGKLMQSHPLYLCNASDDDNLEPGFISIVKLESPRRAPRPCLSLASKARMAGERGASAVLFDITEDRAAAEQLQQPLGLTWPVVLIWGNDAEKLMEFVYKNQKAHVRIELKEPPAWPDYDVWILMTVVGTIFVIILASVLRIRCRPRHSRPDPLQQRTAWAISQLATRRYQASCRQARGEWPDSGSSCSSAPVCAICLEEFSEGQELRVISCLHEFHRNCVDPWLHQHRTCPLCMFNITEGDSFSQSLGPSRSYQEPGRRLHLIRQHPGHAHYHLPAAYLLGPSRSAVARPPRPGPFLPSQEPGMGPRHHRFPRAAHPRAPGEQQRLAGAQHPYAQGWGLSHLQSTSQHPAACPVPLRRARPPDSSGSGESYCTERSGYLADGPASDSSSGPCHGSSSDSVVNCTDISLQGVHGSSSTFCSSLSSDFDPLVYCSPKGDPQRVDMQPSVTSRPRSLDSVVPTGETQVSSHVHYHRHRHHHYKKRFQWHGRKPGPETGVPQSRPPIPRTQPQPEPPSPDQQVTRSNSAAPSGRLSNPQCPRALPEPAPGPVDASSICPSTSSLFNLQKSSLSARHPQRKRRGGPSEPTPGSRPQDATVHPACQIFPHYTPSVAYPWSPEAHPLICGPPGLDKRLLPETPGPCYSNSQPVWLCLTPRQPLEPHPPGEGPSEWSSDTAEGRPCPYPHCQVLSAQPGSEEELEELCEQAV
RNF43 ΔW564-P587 (Q68DV7, form named): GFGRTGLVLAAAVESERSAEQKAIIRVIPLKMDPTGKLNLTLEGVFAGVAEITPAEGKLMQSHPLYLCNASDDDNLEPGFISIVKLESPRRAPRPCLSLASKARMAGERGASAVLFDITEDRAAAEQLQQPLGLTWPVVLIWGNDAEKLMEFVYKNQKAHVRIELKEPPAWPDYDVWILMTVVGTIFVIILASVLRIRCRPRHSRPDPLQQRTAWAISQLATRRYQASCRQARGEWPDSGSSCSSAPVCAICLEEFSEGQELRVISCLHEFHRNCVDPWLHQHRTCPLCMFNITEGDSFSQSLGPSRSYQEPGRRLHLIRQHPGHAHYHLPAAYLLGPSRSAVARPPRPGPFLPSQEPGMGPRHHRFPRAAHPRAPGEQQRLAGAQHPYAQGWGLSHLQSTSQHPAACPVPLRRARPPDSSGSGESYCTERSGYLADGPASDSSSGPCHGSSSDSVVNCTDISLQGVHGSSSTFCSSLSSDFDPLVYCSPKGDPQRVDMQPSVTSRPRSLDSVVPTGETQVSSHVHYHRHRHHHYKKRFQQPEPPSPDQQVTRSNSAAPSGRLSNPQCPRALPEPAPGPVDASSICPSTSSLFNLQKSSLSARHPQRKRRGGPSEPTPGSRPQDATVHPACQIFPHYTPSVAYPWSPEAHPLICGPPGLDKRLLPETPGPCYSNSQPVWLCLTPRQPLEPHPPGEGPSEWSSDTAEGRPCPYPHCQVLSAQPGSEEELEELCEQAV
UniProt P25054: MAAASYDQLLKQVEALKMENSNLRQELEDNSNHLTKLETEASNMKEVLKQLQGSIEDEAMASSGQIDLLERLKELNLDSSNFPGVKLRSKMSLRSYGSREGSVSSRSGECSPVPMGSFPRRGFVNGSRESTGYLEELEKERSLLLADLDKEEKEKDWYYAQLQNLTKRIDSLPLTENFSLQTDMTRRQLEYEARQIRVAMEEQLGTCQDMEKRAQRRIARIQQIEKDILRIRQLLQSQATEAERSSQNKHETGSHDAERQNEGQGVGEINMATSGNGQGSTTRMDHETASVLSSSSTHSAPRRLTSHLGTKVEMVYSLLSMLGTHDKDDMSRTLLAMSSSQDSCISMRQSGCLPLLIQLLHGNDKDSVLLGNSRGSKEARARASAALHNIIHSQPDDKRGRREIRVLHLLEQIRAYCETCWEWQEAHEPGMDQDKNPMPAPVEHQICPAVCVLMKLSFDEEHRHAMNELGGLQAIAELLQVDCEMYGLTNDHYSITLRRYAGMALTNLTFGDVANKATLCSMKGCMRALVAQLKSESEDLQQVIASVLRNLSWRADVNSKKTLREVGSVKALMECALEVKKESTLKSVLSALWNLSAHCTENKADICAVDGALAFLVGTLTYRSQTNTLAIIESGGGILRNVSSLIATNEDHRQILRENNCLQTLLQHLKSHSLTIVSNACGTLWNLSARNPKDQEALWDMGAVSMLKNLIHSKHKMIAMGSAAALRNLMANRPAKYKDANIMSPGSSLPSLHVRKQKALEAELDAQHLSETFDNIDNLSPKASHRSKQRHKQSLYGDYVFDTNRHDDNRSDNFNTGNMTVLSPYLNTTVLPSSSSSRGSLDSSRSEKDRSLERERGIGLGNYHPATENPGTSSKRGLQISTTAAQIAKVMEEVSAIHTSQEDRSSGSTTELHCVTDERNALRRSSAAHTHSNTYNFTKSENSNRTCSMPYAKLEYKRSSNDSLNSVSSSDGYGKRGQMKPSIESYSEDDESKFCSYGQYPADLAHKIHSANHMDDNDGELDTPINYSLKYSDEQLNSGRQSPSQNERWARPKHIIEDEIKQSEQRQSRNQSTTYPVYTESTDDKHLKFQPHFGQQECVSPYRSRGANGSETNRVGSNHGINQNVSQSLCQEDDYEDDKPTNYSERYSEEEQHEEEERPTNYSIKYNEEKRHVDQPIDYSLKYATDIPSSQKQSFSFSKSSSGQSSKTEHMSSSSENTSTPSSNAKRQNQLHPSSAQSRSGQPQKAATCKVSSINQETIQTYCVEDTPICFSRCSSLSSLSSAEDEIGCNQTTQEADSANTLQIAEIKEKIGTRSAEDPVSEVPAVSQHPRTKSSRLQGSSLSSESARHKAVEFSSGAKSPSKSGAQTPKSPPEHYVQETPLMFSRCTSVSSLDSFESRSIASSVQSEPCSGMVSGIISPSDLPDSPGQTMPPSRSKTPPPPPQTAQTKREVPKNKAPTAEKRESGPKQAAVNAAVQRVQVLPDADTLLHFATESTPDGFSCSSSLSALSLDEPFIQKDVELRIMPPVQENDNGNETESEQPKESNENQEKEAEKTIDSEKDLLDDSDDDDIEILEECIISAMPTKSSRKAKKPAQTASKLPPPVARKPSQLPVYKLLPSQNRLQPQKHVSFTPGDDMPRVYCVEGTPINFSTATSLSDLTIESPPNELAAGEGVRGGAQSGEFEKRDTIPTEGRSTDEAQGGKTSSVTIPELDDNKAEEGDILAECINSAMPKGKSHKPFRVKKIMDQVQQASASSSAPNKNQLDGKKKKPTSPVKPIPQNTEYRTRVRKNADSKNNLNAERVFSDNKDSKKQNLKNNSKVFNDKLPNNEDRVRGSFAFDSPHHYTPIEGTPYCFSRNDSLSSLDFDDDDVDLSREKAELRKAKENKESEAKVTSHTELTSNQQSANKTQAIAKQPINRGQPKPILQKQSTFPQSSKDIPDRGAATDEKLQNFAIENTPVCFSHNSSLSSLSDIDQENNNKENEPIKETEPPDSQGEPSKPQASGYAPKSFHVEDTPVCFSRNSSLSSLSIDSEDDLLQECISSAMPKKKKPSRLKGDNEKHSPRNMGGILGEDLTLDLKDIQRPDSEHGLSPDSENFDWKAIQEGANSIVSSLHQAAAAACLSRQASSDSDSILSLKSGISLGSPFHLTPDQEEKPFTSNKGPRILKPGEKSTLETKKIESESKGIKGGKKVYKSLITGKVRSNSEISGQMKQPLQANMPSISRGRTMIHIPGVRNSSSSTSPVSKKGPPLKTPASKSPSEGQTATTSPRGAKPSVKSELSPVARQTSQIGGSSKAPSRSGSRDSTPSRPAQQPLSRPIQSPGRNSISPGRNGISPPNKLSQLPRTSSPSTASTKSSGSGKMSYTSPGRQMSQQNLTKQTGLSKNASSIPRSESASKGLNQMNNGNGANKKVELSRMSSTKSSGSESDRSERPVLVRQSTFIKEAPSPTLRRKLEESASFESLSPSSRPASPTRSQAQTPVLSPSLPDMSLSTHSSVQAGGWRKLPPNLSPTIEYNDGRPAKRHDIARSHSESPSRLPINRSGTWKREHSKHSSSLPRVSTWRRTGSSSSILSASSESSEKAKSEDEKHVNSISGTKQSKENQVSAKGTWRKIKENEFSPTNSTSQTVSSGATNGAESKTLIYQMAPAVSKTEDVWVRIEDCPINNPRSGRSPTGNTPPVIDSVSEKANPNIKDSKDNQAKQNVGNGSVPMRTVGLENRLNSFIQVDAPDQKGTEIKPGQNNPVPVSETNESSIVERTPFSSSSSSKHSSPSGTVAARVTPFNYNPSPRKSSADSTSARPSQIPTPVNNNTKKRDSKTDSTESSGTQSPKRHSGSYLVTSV
UniProt O15169: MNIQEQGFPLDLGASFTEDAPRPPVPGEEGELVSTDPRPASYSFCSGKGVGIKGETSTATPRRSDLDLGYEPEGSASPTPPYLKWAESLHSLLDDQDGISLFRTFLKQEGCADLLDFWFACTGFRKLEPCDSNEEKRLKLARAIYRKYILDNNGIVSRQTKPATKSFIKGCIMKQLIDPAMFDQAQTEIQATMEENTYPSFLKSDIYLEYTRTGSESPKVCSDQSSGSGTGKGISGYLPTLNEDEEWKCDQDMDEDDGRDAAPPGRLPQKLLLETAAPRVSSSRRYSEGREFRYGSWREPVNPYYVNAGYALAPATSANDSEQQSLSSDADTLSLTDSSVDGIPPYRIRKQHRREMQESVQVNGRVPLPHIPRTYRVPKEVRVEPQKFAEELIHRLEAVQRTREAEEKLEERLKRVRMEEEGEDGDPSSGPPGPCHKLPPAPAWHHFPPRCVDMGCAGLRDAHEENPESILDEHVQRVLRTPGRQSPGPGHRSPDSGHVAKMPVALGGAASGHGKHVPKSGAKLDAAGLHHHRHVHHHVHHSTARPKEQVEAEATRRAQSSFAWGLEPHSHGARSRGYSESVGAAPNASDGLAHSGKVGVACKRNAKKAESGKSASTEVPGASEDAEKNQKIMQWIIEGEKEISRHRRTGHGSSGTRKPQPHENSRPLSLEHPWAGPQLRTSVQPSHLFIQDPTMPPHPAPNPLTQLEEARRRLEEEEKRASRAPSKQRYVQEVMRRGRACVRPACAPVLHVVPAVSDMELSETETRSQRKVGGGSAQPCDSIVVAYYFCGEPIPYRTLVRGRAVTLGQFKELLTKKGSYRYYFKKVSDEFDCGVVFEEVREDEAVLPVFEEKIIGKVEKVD
UniProt P49674: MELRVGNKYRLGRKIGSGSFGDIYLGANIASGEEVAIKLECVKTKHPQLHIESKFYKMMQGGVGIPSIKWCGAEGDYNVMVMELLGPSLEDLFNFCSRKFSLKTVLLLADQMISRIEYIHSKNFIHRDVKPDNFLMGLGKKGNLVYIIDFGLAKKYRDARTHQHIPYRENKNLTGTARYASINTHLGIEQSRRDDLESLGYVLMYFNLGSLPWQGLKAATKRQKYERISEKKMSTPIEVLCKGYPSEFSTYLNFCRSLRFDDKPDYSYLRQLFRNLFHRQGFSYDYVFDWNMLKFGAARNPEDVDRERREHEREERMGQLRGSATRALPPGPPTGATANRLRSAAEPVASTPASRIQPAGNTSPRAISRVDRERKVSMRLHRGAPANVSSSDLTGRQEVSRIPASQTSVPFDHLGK
UniProt P49841: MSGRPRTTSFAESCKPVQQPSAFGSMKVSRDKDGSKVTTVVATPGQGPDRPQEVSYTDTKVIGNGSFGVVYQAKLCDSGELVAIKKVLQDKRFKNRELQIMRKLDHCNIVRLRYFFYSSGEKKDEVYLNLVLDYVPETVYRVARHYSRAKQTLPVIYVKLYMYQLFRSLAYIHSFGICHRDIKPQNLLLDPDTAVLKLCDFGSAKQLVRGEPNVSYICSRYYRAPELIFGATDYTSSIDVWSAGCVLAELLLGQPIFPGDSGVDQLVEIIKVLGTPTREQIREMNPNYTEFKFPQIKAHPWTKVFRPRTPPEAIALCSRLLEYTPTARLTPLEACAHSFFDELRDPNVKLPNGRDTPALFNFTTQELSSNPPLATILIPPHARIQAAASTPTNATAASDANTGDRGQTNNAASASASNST

Columns and labels:
[1] = target: RNF43 R519X (human) (UniProt Q68DV7); test: co-IP; RNF43 variants expressed in HEK293T cells precipitated from lysate (50 mM Tris pH 7.5, 150 mM NaCl, 0.5% Triton X-100, 5 mM EDTA), endogenous destruction complex components detected by Western blot; one panel in Axin2KO HEK293T cells treated with control or Axin1 siRNA for 4 days
[2] = target: RNF43 ΔW564-P587 (human) (UniProt Q68DV7); test: as above
[3] = target: RNF43–2×Flag–HA, wild type (human) (UniProt Q68DV7); test: as above
[4] = target: Flag‐APC‐V5 (UniProt P25054); test: co-IP; V5-APC precipitated from lysate of HEK293T cells co-expressing RNF43 variants, RNF43 detected by Western blot
[5] = target: Axin1 (endogenous) (human (endogenous in HEK293T)) (UniProt O15169); test: co-IP; endogenous Axin1 precipitated from lysate of HEK293T cells expressing RNF43 variants, RNF43 detected by Western blot
[6] = target: RNF43 P524X (human) (UniProt Q68DV7); test: co-IP; RNF43 variants precipitated from lysate of HEK293T cells co-expressing myc-GSK3β, myc-GSK3β detected by Western blot
[7] = target: RNF43–2×Flag–HA, wild type (human) (UniProt Q68DV7); test: as above

- binding [1]: binds
- binding [2]: binds
- binding [3]: binds
Substance: Casein kinase 1 epsilon (endogenous) (from UniProt P49674 1-416) (enzyme)

- binding [1]: binds
- binding [3]: binds
Substance: Axin1 (endogenous) (from UniProt O15169 1-862)

- binding [6]: binds
- binding [7]: binds
Substance: myc‐GSK3β (from UniProt P49841 1-420) (enzyme)

- binding [4]: binds
Substance: RNF43 P524X (from UniProt Q68DV7 24-523) (domain or fragment)

Continued, substance first:

Substance: RNF43–2×Flag–HA, wild type (from UniProt Q68DV7 24-783)
- binding [4]: binds
- binding [5]: binds

Substance: GSK3β (endogenous) (from UniProt P49841 1-420) (enzyme)
- binding [3]: binds

Substance: RNF43 R519X (from UniProt Q68DV7 24-518) (domain or fragment)
- binding [5]: binds
